In publication PMC2164959:
These are yes or no findings as the source states them, for the method shown. In cells and extracts the contact can be indirect. Some entries that bind do so weakly or less than the wild type.

T1: calnexin (human (endogenous in HEK-293T and HeLa)) (UniProt P27824)
T1 sequence: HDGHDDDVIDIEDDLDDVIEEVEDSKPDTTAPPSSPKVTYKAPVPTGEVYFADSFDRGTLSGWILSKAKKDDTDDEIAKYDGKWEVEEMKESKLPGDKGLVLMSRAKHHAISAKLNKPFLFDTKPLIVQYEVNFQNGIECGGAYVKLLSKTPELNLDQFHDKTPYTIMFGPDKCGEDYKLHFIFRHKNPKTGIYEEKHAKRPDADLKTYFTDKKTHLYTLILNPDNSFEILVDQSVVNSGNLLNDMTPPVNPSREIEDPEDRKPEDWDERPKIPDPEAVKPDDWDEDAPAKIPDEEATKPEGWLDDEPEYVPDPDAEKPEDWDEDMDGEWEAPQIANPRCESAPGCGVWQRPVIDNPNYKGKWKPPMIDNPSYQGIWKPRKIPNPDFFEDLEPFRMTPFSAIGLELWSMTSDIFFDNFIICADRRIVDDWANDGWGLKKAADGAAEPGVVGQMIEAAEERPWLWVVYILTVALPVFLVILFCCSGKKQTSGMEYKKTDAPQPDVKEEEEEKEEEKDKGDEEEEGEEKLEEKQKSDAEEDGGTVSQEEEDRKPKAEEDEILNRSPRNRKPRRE


Columns and labels:
[1] = target: T1, calnexin (human (endogenous in HEK-293T and HeLa)); test: co-IP; HEK-293T transfected, CHAPS lysate; immunoprecipitation with anti-calnexin, blot with anti-E5-tag (anti-AU1 or anti-HA)
[2] = target: AU1-tagged codon-optimised HPV16 E5 (human papillomavirus type 16) (UniProt P06927); test: co-IP; HeLa transiently transfected, CHAPS lysate 24 h later; immunoprecipitation with anti-AU1, blot with anti-calnexin and anti-HLA-B, -C mAb HC10
[3] = target: AU1-tagged codon-optimised HPV16 E5 (human papillomavirus type 16) (UniProt P06927); test: co-IP; HEK-293T transfected, lysed 20-24 h after transfection in CHAPS buffer (0.2 M NaCl, 50 mM HEPES pH 7.5, 2% CHAPS); immunoprecipitation by the tag of E5 (anti-AU1, anti-HA or anti-GFP), protein G-sepharose, blot with anti-calnexin
[4] = target: GFP-E5 fusion (pEGFP-HPV16-E5) (human papillomavirus type 16) (UniProt P06927); test: as above
[5] = target: HA-tagged HPV16 E5 (pCI-HPV16-E5-HA) (human papillomavirus type 16) (UniProt P06927); test: as above

Molecule | binding [1] | binding [2] | binding [3] | binding [4] | binding [5]
HA-tagged HPV16 E5 (pCI-HPV16-E5-HA) (from UniProt P06927 2-83) | binds |  |  |  | 
AU1-tagged codon-optimised HPV16 E5 (from UniProt P06927 1-83) | binds |  |  |  | 
calnexin (protein, UniProt P27824 21-592) HDGHDDDVIDIEDDLDDVIEEVEDSKPDTTAPPSSPKVTYKAPVPTGEVYFADSFDRGTLSGWILSKAKKDDTDDEIAKYDGKWEVEEMKESKLPGDKGLVLMSRAKHHAISAKLNKPFLFDTKPLIVQYEVNFQNGIECGGAYVKLLSKTPELNLDQFHDKTPYTIMFGPDKCGEDYKLHFIFRHKNPKTGIYEEKHAKRPDADLKTYFTDKKTHLYTLILNPDNSFEILVDQSVVNSGNLLNDMTPPVNPSREIEDPEDRKPEDWDERPKIPDPEAVKPDDWDEDAPAKIPDEEATKPEGWLDDEPEYVPDPDAEKPEDWDEDMDGEWEAPQIANPRCESAPGCGVWQRPVIDNPNYKGKWKPPMIDNPSYQGIWKPRKIPNPDFFEDLEPFRMTPFSAIGLELWSMTSDIFFDNFIICADRRIVDDWANDGWGLKKAADGAAEPGVVGQMIEAAEERPWLWVVYILTVALPVFLVILFCCSGKKQTSGMEYKKTDAPQPDVKEEEEEKEEEKDKGDEEEEGEEKLEEKQKSDAEEDGGTVSQEEEDRKPKAEEDEILNRSPRNRKPRRE |  | binds | binds | binds | binds
